Measured values taken from PubChem BioAssay AID540276 (National Center for Advancing Translational Sciences (NCATS), 2011).
Out of some 300,000 compounds screened, about 5,400 (1.8%) were called active. Inconclusive means that the source gave no clear call. Such entries were picked first, then a sample of the others. Calls come from the whole dose curve; tested in HEK293 cells. Potencies of inconclusive entries are doubtful fits and often do not repeat.
% is set by controls: 0 for no effect and ±100 for the full control effect; potency is the fitted concentration of half-maximal effect.

Assay: qHTS for inhibitors of binding or entry into cells for Marburg Virus
Conditions: Marburg virus pseudotyped entry inhibition, cell reporter; activity change, negative = inhibition: at 37.8 µM (top of the series) unless noted
For `O=C(NCc1nnnn1-c1ccc(F)c(F)c1)C(=O)c1c[nH]c2ccccc12`, the “activity change, negative = inhibition” value was inactive: 7.38%.
With `O=C(Oc1ccccc1)N(c1ccccc1)c1ccccc1` the Potency was inconclusive: 25.1 µM [inhibitor, partial curve, poor fit].
In the case of `CCCNC(=O)c1ccc(-c2nc3ccccc3s2)s1`, the Potency is reported as active: 3.55 µM.
With `Brc1ccccc1OCCCCn1cnc2ccccc21` the Potency was inconclusive: 35.5 µM [inhibitor, single point].
With `CN(C)CCCNC(=O)c1cc2sc3ccccc3c2s1` the Potency was inconclusive: 35.5 µM [inhibitor, single point].
In the case of `COC(=O)CCN(Cc1cc(OC)ccc1OC)S(=O)(=O)c1ccccc1Br`, the Potency is reported as inconclusive: 0.007 µM [inhibitor, full curve, poor fit].
With `COC(=O)c1ccc(NC(=O)CN2CCN(CC#N)CC2)cc1` the Potency was inconclusive: 22.4 µM [activator, single point].
With `C=CCn1c(C)cc(C(=O)COC(=O)c2ccc(N)c([N+](=O)[O-])c2)c1C` the Potency was inconclusive: 3.55 µM [activator, single point].
In the case of `COc1ccc(/C=N/N2CCOCC2)cc1Cn1cc([N+](=O)[O-])cn1`, the “activity change, negative = inhibition” value is reported as inactive: 19.8%.
With `CN(C)CCCOC(=O)COc1ccc(C(C)(C)C)cc1` the “activity change, negative = inhibition” value was inactive: 3.5%.
For `CCOc1cc(S(=O)(=O)NCc2ccco2)c(OCC)cc1-n1cnnn1`, the “activity change, negative = inhibition” value was inactive: -0.306%.
For `O=C1[C@H]2[C@H]3[C@H](O)[C@H](O)C/C(=N\OC[C@@H](O)COCc4ccco4)[C@H]3CC[C@H]2C(=O)N1Cc1ccccc1`, the “activity change, negative = inhibition” value was inactive: -3.55% [at 14.2 µM].
In the case of `CCN(CC(=O)Nc1ccc2c(c1)CCC2)Cc1nc2ccccc2c(=O)[nH]1`, the Potency is reported as inconclusive: 25.9 µM [inhibitor, partial curve, poor fit].
For `O=C(Nc1ccc(F)cc1)c1oc2ccccc2c1NC(=O)C1CCCCC1`, the Potency was inconclusive: 2.51 µM [inhibitor, partial curve, poor fit].
With `Cc1cccc(C(=O)N2CCCCC2CCN2CCCCC2)c1` (stereo not given) the Potency was inconclusive: 35.5 µM [inhibitor, single point].
In the case of `O=C(CN1CCCCC1)NCC(=O)Nc1ccc(Br)cc1C(=O)c1ccccc1`, the Potency is reported as inconclusive: 16.4 µM [inhibitor, single point].
For `CC(C)Oc1cccc(C(=O)N2CCCC2)c1`, the “activity change, negative = inhibition” value was inactive: 12.9% [at 46.1 µM].
In the case of `Cc1ccc(NC(=O)c2ccccn2)c(Br)c1`, the Potency is reported as inconclusive: 10.3 µM [inhibitor, partial curve, poor fit].
For `CCOc1ccccc1NC(=O)C1=C(C)NC(=O)NC1c1cccs1` (stereo not given), the Potency was inconclusive: 6.31 µM [inhibitor, partial curve].
For `CC(=O)/C(=N/Nc1cccc(C)c1)N1CCOCC1`, the Potency was inconclusive: 4.11 µM [inhibitor, full curve, poor fit].
With `Cc1cc(COc2ccccc2O)on1` the “activity change, negative = inhibition” value was inactive: 2.79%.
In the case of `O=C(c1ccc2c(c1)OCO2)C1CCCN(Cc2cc(F)ccc2-n2cccn2)C1` (stereo not given), the Potency is reported as inconclusive: 35.5 µM [activator, single point].
For `CC(C)c1ccc(C(C)NCCS(=O)(=O)c2ccc(Br)cc2)cc1` (stereo not given), the Potency was inconclusive: 35.5 µM [inhibitor, single point].
In the case of `Cc1ccc(C(=O)NCC(=O)N2CCCN(S(=O)(=O)c3ccc(C)cc3)CC2)cc1`, the “activity change, negative = inhibition” value is reported as inactive: 1.24%.
With `O=Nc1c(O)n(Cc2c(Cl)cccc2Cl)c2ccccc12` the Potency was inconclusive: 25.9 µM [inhibitor, single point].
With `CCCSC1=N/C(=C\C=C\c2ccco2)C(=O)S1` the “activity change, negative = inhibition” value was inactive: -13.5%.
With `Oc1ccccc1-c1cc(-c2ccccc2)no1` the Potency was inconclusive: 35.5 µM [inhibitor, single point].
In the case of `O=C(CCCCl)Oc1ccc2cc(-c3ccc4ccccc4n3)c(=O)oc2c1`, the “activity change, negative = inhibition” value is reported as inactive: 14%.
With `COc1ccc(OCC(=O)N2CCN(c3cccc(Cl)c3)CC2)cc1` the Potency was inconclusive: 3.16 µM [inhibitor, single point].
In the case of `N#CC(C#N)=C1C(=O)N(CCN2CCOCC2)c2ccccc21`, the “activity change, negative = inhibition” value is reported as inactive: 3.36% [at 46.1 µM].
With `O=C(c1ccccc1)N1CCN(Cc2c[nH]c3ccccc23)CC1` the Potency was inconclusive: 3.16 µM [inhibitor, partial curve, poor fit].
For `O=C(O)CC/C(=N\NC(=O)c1ccccc1Br)c1ccccc1`, the Potency was inconclusive: 35.5 µM [activator, partial curve, poor fit].
For `Nc1c(C(=O)c2ccc(Cl)cc2)sc2nc3c(cc12)CCC3`, the Potency was inconclusive: 1.26 µM [activator, single point].
In the case of `CCn1c2ccccc2c2cc(NC(=O)c3cccc([N+](=O)[O-])c3C)ccc21`, the Potency is reported as inconclusive: 7.94 µM [inhibitor, partial curve, poor fit].
For `Cn1nc(C(=O)NNC(=O)C2CSC3(C)CCC(=O)N23)c2ccccc2c1=O` (stereo not given), the Potency was inconclusive: 31.6 µM [activator, single point].
For `O=C(COC(=O)c1ccco1)NC1CCCC1`, the Potency was inconclusive: 3.98 µM [inhibitor, single point].
For `Cc1ccc(C(=O)N/N=C(/CC(=O)c2cccs2)C(F)(F)F)cc1`, the Potency was inconclusive: 14.6 µM [inhibitor, partial curve].
With `CC1=CC(C)C2(COC(=O)Nc3ccccc3)COC(C)C1C2C` (stereo not given) the “activity change, negative = inhibition” value was inactive: -0.75% [at 46.1 µM].
In the case of `C[C@@H]1[C@@H](c2ccccc2)c2cc3ccccc3nc2-c2nc3ccccc3cc2[C@H]1C(=O)N1CCCC1`, the “activity change, negative = inhibition” value is reported as inactive: 25.3% [at 14.2 µM].
With `CCc1cccc(NC(=O)Cc2ccc(OC)c(OC)c2)c1` the Potency was inconclusive: 3.66 µM [inhibitor, partial curve].
With `CC1CC(C)CN(S(=O)(=O)CCNC(=O)c2ccccc2)C1` (stereo not given) the Potency was inconclusive: 0.0891 µM [inhibitor, full curve, poor fit].
In the case of `CCC(Oc1ccc(F)cc1)C(=O)Nc1nc2c(s1)CCCC2` (stereo not given), the “activity change, negative = inhibition” value is reported as inactive: -24.3% [at 46.1 µM].
For `O=C(CCN1CCOCC1)Nc1c(-c2ccccc2)c2cc(Br)ccc2[nH]c1=O`, the Potency was “inactive”.
With `COc1ccc(C(=O)Nc2cc([N+](=O)[O-])ccc2N2CCN(C)CC2)cc1` the Potency was inconclusive: 13 µM [inhibitor, partial curve].
With `C=CCOC(=O)N[C@H](C(C(=O)OC)=C(C)NCc1ccccc1)c1ccc(C)cc1` the Potency was inconclusive: 0.0011 µM [activator].
